Measured data: PubChem BioAssay AID504793 (Drosophila RNAi Screening Center, 2011)
Purpose: 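Whole-genome screen for parts of the DNA damage checkpoint at G2/M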 (primary screen). Cell system: Drosophila S2R+ cells. Knock-down reagent: long dsRNA against Drosophila genes, about 0.25 µg dsRNA per well. Time to read-out: 4 days of dsRNA, then 4 hours of drug before read-out. Treatment: doxorubicin 0.5 µM for 4 hours to cause double-strand breaks, in cells also given a low, harmless dose of dsRNA against nbs to sensitise the assay. Measurement: 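Per-well count of mitotic cells stained for phospho-histone H3 after doxorubicin exposure, used as mitotic index; counts are raw and not normalised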. Reading the numbers: mitotic cells: higher = more cells in mitosis, weaker G2 arrest. Rule for the call: 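Genes are called active only when high mitotic counts were reproduced with independent dsRNAs and mitosis was checked for delay without damage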. Meaning of the calls: active = confirmed in follow-up tests; inactive = not confirmed.
In all, the deposit lists about 23,000 reagents; this is an unselected part of those with a known target gene and a result. In the full data, 62 (0.27%) got an active call. 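Calls come from follow-up tests whose scores are not deposited, so confirmed genes may have low counts here; counts are not normalised per plate.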 Raw values vary from plate to plate and are shown uncorrected. A plus sign joins genes that one reagent is predicted to hit. No sequences are given here.

Target gene | amplicon | mitotic cells, replicate 1 | mitotic cells, replicate 2 | activity call
CG13840 | DRSC23279 | 10 | – | inactive
CG13840 | DRSC28749 | 6 | – | inactive
mys | DRSC18799 | 11 | – | inactive
mys | DRSC29061 | 9 | – | inactive
Cpr | DRSC03293 | 3 | – | inactive
Cpr | DRSC28411 | 3 | – | inactive
CG31698 | DRSC22226 | 3 | – | inactive
CG31698 | DRSC28563 | 5 | – | inactive
CG2124 | DRSC18208 | 6 | – | inactive
Raf | DRSC18821 | 9 | – | inactive
Raf | DRSC23311 | 13 | – | inactive
Raf | DRSC36609 | 7 | – | inactive
Doc2 | DRSC22716 | 10 | – | inactive
Doc2 | DRSC25293 | 5 | – | inactive
spz | DRSC17065 | 7 | – | inactive
spz | DRSC28820 | 1 | – | inactive
spz | DRSC39151 | 9 | – | inactive
PIG-T | DRSC17774 | 5 | – | inactive
Sac1 | DRSC08622 | 4 | – | inactive
Sac1 | DRSC26886 | 7 | – | inactive
CG14834 | DRSC10204 | 1 | – | inactive
CG14834 | DRSC28202 | 5 | – | inactive
rpr | DRSC11390 | 6 | – | inactive
CG11417 | DRSC18581 | 3 | – | inactive
CG4230 | DRSC02740 | 7 | – | inactive
CG11655 | DRSC19413 | 11 | – | inactive
CtsK2 | DRSC06897 | 5 | – | inactive
CtsK2 | DRSC25927 | 11 | – | inactive
CG17687 | DRSC10279 | 6 | – | inactive
CG17687 | DRSC25837 | 6 | – | inactive
elgi | DRSC10242 | 8 | – | inactive
elgi | DRSC29665 | 3 | – | inactive
COX6AL2 | DRSC10082 | 5 | – | inactive
CG7557 | DRSC10878 | 9 | – | inactive
CG7557 | DRSC28227 | 6 | – | inactive
EndoG | DRSC07292 | 18 | – | inactive
EndoG | DRSC22746 | 7 | – | inactive
EndoG | DRSC26632 | 5 | – | inactive
CG33116 | DRSC02045 | 5 | – | inactive
CG32733 (retired record) + CG32797 | DRSC17705 | 7 | 10 | inactive
mRpL23 | DRSC08307 | 13 | – | inactive
CG17362 | DRSC10267 | 3 | – | inactive
CG4882 | DRSC04495 | 7 | – | inactive
CG4882 | DRSC29963 | 12 | – | inactive
CG5823 | DRSC15881 | 6 | – | inactive
Pgm1 | DRSC10490 | 2 | – | inactive
Pgm1 | DRSC28517 | 5 | – | inactive
CG12316 | DRSC09879 | 5 | – | inactive
CG12316 | DRSC27599 | 10 | – | inactive
CG5902 | DRSC15912 | 7 | – | inactive
Porin2 | DRSC02584 | 5 | – | inactive
CG12661 | DRSC17864 | 7 | – | inactive
CG12661 | DRSC29244 | 4 | – | inactive
OdsH | DRSC20263 | 3 | – | inactive
CG14985 | DRSC08443 | 8 | – | inactive
CG6472 | DRSC06989 | 9 | – | inactive
CG30383 | DRSC05062 | 1 | – | inactive
CG43689 | DRSC22467 | 12 | – | inactive
CG43689 | DRSC23070 | 7 | – | inactive
CG43689 | DRSC26563 | 1 | – | inactive
CG8202 | DRSC16396 | 5 | – | inactive
Mms19 | DRSC12188 | 2 | – | inactive
Mms19 | DRSC27172 | 8 | – | inactive
CG40045 | DRSC21232 | 5 | 12 | inactive
ltl | DRSC10206 | 11 | – | inactive
ltl | DRSC10870 | 10 | – | inactive
mthl10 | DRSC08504 | 7 | – | inactive
mthl10 | DRSC08505 | 3 | – | inactive
mthl10 | DRSC39158 | 14 | – | inactive
CG17597 | DRSC02630 | 3 | – | inactive
CG17597 | DRSC24788 | 10 | – | inactive
poe | DRSC03593 | 6 | – | inactive
poe | DRSC28537 | 15 | – | inactive
comm2 | DRSC10877 | 8 | – | inactive
Paics | DRSC20305 | 6 | – | inactive
